Experiment [1] concerns the target AtMPK6, split-YFP fusion for BiFC (Arabidopsis thaliana) (UniProt Q39026). The experiment can be described thus: split reporter.
Experiment [2] has as its target HvTOL8 (barley TOM1-like protein 8), split-YFP fusion for BiFC (barley (Hordeum vulgare)). The experiment can be described thus: split reporter.

Protein sequences, listed by entry. Tags and fused reporters are not part of them.
UniProt Q39026: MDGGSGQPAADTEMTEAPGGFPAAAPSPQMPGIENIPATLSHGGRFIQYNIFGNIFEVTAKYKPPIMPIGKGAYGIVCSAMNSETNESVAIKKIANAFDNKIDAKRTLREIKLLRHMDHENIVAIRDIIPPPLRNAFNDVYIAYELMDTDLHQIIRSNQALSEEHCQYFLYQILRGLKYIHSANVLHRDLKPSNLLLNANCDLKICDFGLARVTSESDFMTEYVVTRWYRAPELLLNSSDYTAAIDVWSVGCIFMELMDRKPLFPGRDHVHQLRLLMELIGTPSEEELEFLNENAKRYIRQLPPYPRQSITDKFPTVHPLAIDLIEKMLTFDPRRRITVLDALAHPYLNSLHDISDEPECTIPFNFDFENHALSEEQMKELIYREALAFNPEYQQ

These are yes or no findings as the source states them, for the method shown. In cells and extracts the contact can be indirect. For part of these data: A result given as binding can be weak or reduced; the word gives no strength.

Experimental findings from paper doi:10.1101/2025.09.06.674610 are described below.

For the substance “HvTOL1 (barley TOM1-like protein 1), split-YFP fusion for BiFC (from UniProt A0A8I6YCT7)”, the binding result in experiment [1] is on record as “no binding”; in experiment [2], “binds weakly”.
For “HvTOL8 (barley TOM1-like protein 8), split-YFP fusion for BiFC (from UniProt A0A8I6YP48)”, the binding entry in experiment [1] is given as “no binding”.
